These are yes or no findings as the source states them, for the method shown. Some results given as binding are weak or reduced against the parent protein; the word gives no strength.
Molecular target: A3C1C2 subunit of factor VIII (human) (UniProt P00451)
Experiment: fluorescence titration of acrylodan-labeled A1 with A3C1C2

Amino acid sequences for entries named in this document (tags omitted). A change or cut given only in a name is not applied to a line headed by its entry.
UniProt P00451: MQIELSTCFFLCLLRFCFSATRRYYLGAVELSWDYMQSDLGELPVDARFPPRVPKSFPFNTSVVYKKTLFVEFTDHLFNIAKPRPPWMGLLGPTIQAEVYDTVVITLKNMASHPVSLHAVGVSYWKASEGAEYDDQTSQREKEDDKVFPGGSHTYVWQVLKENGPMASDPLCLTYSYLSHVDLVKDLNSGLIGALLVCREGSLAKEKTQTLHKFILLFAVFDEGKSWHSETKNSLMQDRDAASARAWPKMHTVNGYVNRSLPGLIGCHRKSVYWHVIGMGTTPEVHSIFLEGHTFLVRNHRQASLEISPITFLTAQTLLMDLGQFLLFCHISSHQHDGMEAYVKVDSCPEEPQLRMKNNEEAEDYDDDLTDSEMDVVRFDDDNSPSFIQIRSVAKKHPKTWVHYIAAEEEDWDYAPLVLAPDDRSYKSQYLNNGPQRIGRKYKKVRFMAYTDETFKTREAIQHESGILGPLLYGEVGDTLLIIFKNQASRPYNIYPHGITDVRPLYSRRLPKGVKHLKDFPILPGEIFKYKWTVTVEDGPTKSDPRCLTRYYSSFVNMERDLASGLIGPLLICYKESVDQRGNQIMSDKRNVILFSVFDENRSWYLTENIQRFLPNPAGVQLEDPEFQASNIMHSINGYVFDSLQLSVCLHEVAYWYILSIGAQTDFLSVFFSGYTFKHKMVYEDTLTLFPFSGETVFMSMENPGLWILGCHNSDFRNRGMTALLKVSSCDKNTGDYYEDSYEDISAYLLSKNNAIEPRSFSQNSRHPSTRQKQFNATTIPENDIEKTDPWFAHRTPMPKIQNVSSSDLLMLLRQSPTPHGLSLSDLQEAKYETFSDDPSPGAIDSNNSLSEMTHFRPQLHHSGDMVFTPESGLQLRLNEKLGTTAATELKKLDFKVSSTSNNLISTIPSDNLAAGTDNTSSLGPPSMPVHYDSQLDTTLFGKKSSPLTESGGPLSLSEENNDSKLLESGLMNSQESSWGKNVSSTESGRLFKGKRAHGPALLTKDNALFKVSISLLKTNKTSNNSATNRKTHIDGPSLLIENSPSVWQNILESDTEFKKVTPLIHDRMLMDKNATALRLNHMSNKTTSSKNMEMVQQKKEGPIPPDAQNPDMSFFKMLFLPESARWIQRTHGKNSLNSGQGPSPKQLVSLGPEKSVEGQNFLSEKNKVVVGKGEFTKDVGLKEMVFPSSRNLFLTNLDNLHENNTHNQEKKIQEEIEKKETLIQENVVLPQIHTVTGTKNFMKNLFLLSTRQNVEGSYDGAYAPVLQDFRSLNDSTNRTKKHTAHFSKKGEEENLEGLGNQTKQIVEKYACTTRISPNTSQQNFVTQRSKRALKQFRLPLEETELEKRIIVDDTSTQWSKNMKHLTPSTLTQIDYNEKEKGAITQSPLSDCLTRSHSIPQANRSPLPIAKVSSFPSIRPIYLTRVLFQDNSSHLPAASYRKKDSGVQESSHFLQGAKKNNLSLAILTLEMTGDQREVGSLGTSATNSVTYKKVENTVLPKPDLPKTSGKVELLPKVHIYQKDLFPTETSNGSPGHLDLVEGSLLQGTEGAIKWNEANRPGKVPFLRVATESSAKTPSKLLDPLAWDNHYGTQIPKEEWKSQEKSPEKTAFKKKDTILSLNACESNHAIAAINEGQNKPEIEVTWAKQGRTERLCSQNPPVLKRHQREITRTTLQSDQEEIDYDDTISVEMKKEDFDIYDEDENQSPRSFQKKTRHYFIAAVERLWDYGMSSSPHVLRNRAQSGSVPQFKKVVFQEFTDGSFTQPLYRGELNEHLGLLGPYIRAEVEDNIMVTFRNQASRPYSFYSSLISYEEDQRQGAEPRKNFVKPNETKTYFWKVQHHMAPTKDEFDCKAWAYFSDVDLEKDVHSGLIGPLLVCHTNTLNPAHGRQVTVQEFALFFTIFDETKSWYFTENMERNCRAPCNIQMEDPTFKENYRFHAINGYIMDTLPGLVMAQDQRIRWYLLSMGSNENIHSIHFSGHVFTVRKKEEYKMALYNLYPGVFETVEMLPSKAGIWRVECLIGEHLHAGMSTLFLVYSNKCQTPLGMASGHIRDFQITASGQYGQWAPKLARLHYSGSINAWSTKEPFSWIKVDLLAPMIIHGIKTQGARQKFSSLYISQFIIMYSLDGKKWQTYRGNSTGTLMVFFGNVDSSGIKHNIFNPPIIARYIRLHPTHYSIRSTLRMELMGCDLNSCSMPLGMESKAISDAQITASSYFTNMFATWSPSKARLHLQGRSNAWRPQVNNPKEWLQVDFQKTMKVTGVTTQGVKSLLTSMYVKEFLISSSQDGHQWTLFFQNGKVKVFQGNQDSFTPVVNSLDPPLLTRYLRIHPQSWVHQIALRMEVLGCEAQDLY

binding	Substance
binds	acrylodan-labeled A1 subunit from Ala108Ile factor VIII (from UniProt P00451 20-391)
binds	acrylodan-labeled A1 subunit from WT factor VIII (from UniProt P00451 20-391)
